Experimental data from paper PMC6063913.
No constants are given. Whether binding was seen depends on the method and setting. Binding seen in cells or lysates may run through a third protein. Some results given as binding are weak or reduced against the parent protein; the word gives no strength.

Amino acid sequences for entries named in this document (tags omitted).
UniProt P46937: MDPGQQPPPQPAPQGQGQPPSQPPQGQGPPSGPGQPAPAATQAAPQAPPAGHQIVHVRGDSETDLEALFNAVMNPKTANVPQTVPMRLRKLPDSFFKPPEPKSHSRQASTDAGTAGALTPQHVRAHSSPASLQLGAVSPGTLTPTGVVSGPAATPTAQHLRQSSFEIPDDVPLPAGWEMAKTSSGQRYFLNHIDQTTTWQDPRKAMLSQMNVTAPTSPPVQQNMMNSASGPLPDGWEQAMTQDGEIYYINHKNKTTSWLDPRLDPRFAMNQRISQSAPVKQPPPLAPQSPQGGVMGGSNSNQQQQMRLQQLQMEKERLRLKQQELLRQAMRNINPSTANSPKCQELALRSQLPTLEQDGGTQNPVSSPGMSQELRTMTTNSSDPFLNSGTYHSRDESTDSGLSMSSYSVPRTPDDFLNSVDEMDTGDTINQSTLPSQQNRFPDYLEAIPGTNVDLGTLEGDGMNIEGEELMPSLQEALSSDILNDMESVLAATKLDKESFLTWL
UniProt P42858: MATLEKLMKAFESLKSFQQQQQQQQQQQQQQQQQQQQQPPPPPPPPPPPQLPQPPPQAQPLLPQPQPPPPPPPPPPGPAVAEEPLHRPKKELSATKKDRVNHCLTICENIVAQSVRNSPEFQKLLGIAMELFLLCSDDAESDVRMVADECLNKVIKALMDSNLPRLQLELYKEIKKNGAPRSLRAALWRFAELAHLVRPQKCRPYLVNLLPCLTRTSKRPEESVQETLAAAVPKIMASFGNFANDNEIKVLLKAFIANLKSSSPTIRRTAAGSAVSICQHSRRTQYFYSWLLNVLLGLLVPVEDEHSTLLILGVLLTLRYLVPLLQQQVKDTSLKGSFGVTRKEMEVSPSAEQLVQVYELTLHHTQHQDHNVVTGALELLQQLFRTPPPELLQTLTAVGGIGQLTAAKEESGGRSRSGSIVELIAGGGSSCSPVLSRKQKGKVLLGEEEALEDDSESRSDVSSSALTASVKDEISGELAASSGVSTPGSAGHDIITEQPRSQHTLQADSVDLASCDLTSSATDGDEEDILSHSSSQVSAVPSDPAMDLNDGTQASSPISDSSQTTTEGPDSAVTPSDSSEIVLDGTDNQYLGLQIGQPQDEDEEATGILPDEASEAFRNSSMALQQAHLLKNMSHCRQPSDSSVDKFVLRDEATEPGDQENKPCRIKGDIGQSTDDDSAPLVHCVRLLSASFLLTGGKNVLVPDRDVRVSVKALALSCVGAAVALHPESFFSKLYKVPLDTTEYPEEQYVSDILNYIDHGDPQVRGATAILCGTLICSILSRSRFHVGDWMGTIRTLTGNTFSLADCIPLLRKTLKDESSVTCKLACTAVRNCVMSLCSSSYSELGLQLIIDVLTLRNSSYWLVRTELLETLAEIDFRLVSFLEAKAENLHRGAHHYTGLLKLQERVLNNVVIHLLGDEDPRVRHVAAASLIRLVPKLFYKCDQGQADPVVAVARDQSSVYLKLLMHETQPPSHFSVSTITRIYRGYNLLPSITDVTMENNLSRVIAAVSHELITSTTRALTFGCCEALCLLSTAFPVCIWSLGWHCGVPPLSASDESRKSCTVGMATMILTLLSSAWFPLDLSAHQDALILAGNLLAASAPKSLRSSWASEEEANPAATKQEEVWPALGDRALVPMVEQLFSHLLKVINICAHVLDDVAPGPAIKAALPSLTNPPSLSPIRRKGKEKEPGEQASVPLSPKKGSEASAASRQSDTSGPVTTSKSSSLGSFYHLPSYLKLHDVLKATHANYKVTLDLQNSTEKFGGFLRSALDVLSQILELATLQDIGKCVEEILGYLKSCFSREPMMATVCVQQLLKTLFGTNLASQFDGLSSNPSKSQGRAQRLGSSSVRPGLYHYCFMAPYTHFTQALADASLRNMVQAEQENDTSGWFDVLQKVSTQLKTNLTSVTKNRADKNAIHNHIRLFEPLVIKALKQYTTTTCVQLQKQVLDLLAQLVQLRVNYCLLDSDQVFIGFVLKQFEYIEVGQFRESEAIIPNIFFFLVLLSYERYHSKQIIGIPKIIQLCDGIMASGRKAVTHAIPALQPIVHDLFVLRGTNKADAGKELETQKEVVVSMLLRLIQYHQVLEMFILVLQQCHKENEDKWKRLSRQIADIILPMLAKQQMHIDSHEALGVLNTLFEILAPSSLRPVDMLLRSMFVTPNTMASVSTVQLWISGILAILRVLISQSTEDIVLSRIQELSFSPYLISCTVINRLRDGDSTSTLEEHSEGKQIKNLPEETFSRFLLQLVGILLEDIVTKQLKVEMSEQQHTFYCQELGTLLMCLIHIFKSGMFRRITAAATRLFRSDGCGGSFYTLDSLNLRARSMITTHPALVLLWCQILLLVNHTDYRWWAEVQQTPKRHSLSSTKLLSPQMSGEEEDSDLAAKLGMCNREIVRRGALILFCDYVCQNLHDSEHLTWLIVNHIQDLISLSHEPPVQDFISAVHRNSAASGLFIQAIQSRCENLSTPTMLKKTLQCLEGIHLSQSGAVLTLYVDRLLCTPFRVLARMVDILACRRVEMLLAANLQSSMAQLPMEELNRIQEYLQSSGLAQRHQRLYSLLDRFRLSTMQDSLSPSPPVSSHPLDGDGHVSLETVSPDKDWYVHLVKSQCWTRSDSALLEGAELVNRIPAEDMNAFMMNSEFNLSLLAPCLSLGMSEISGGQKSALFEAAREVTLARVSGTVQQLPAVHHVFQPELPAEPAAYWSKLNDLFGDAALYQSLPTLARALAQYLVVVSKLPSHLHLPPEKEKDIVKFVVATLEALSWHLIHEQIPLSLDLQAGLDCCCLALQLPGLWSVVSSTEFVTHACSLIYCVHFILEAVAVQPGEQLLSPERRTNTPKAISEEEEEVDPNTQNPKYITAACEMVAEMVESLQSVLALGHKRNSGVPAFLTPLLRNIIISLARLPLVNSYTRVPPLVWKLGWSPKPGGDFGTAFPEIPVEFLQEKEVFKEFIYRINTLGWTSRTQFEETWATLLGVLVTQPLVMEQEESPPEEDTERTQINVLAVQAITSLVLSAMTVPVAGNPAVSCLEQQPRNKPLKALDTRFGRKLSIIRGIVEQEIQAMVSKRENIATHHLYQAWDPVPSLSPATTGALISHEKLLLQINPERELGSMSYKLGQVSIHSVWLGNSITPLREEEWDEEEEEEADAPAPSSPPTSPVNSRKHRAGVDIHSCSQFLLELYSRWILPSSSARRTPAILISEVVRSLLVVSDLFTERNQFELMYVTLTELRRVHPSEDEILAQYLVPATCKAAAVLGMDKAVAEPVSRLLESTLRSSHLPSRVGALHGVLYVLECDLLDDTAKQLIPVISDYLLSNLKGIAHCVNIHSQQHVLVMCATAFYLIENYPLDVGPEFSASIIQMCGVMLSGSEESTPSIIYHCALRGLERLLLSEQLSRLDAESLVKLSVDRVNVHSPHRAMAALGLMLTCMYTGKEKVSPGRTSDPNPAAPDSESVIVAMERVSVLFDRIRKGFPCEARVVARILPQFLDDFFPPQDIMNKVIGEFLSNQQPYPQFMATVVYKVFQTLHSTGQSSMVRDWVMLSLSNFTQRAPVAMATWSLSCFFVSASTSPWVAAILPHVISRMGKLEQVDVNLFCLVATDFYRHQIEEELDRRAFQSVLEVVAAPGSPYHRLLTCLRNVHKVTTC

Target: Yes-Associated Protein (YAP) (human (endogenous in post-mortem cortex)) (UniProt P46937)
Experiment: co-IP; post-mortem human cortex homogenates (control and HD), 150 ug protein, anti-YAP, anti-14-3-3 or anti-Htt MAB2166 antibody in GAL4 immunoprecipitation buffer, 4 C 3.5 h, magnetic protein A beads overnight at 4 C; immunoblot for pan-TEAD, 14-3-3, huntingtin, pYAP

binding: binds
Substance: wild-type huntingtin (Htt) (from UniProt P42858 1-3142)
